Measured values published in patent publication US20070122903A1, “AMNIOTIC FLUID DERIVED CELLS” (priority 2005, published 2007).
At least one compound was matched to its structure with a doubt left.

Tested on: AF-I line, AFCA007 Clone A
Assay: Differentiation of cells into intestinal-like cells, real-time PCR of intestinal hormones
Assay type: cell-based, human
Conditions: daily dose of 10 micro molar for 2 weeks in AMNIOMAX, RNA at day 14, vs untreated

CC1=C(/C=C/C(C)=C/C=C/C(C)=C/C(=O)O)C(C)(C)CCC1 [RA, retinoic acid]
expression of the gut hormones: enhanced
